From patent publication US12448376B2, “Phenothiazine ferroptosis inhibitor, preparation method therefor and application thereof” (CHENGDU HENGHAO INNOVATIVE SCIENCE AND TECHNOLOGY CO., LTD., priority 2019, dated 2025)

Tested on: middle cerebral artery occlusion (MCAO) cerebral stroke model in rat
Experiment: Rat MCAO cerebral stroke model, single administration, TTC staining
Assay type: in vivo, SD rats
Conditions: tail vein injection within 10 min of reperfusion, 24 h after reperfusion
Method: Through the middle cerebral artery occlusion (MCAO) cerebral stroke model (also known as cerebral ischemia model) in rat, the therapeutic effects of the compounds of the present disclosure at different doses and single administration on ischemic cerebral stroke in SD rats were studied. […] The ischemic rats were placed at room temperature to keep their body temperature at 37° C. After 90 min, the suture was pulled out for reperfusion. […] After 24 h of reperfusion, the animals were scored by NSS to evaluate neurological function, and then the animals were dissected to remove the brain for TTC staining. By determining the size of cerebral infarction and calculating the inhibition rate, the therapeutic effects of the test compounds on ischemic cerebral stroke in rats were evaluated comprehensively. […] The percentage of infarct tissue weight in the whole brain was used as the infarct size (%), and the inhibition rate (%) of each drug treatment group was calculated based on the infarct size. The inhibition rate was calculated with the following formula: [formula] 2.

SMILES | Whole brain weight (2.5 mg/kg) [g] | Whole brain weight (5 mg/kg) [g]
C=C(c1ccc2c(c1)Nc1ccccc1S2)c1ccc2ncccc2c1 [Compound 14] | 1.23 ± 0.08 | 1.2 ± 0.08
CCCCC1OC(=O)c2ccccc21 (stereo not drawn) [Positive drug, butylphthalide, reference compound] |  | 1.23 ± 0.08
